# According to the supplement of paper PMC6445147:
# Values scatter widely in this assay.
# B1: human tRNA-Pro; a variant is named by its letters at N, in order (parent)
# chain: GGCTCGTTGGTCTAGNGGTATGATTCTCGCTTAGGGTGCGAGAGGTCCCGGGTTCNNATCCCGGACGAGCCC
# Variants of: B1
# Experiment: tRNA 3' processing efficiency (processed reads / all reads, maximum-likelihood estimate) (fraction); higher = more efficient 3' processing
# Conditions: HEK293T; construct: no Pol-II promoter ((-)CMV library)
row,Variant,tRNA 3' processing efficiency
1,GGCTCGTTGGTCTAGCGCTATGATTCTCGCTTAGGGTGCGAGAGGTCCCGGGTTCACTTCCCGGACGAGCCC,0.43
2,GGCTCGTTAGTCTAGGGGTATGATTCTCGCTTAGGGTGCAAGAGGTCCCGGGTTCAAATCCCGGACGAGCCC,0.5
3,GGCTCGTTTGTCTAGCGGAATGATTCTCGCTTAGGGTGCGAGAGGTCCCGGGTTCCAATCCCGGACGAGCCC,0.17
4,GGCTCGTTGGTCTAGCGGAATGATTCTCGCTTAGGGTGCGAGAGGTCCCGGGTTCTAACCCCGGACGAGCCC,0.14
5,GGCTCGTTGGTCTAGAGGTATGATTCTCGCTTGGGGTGCGAGAGGTCCCGGGTTCAATTCCCGGACGAGCCC,0.2
6,GGCTCGTTGGTCTAGGGGTTTGATTCTCGCTTAGGGTGCGAGAGGTCCCGAGTTCACGTCCCGGACGAGCCC,0.5
7,GGCTCGTTGGTCTAGACGTATGATTCTCGCTTAGGGTGCGAGAGGTCCCGGGTTCAAGGCCCGGACGAGCCC,0.2
8,GGCTCGTTGGTCTAGCGTTATGATTCTCGCTTAGGGTGCGAGAGGTCCCGGGTTCGTATCCCGGACGAGCCC,0.13
9,GGCTCGTTGGTCTAGACGTTTGATTCTCGCTTAGGGTGCGAGAGGTCCCGGGTTCATATCCCGGACGAGCCC,0.4
10,GGCTCGTTGGTCTCGCGGGATGATTCTCGCTTAGGGTGCGAGAGGTCCCGGGTTCCAATCCCGGACGAGCCC,0.4
11,GGCTCGTTGGTCTAGTGGTATGATTCTCGCTTGGGGTGCGAGAGGTCCCGGGTTCAAACCCCGGACGAGCCC,0.2
12,GGCTCGTTGGTCTCGCGGTATGATTCTCGCTTAGGGTGCGAGAGGTCCCGGGTTTGAATCCCGGACGAGCCC,0.1
13,GGCTCGTTGGTCTACGATTGTGATTCTCGCTTAGGGTGCGAGAGGTCCCGGGATCAAATCCCGGACGAGCCC,0.2
14,GGCTCGTTGGTCTAGGGGTATGATTCTCGCTTAGGGTGCGAGAGGTCCCAGGATCTAATCCCGGACGAGCCC,0.4
15,GGCTCGTTGGTCTAGTGGTTTGATTCTCGCTTAGGGTGCGAGAGGTCCCGGGATCCAATCCCGGACGAGCCC,0.4
16,GGCTCGTCGGTCTAGCGGGATGATTCTCGCTTAGGGTGCGAGAGGTCCCGGGTTCACTCCCCGGACGAGCCC,0.33
17,GGCTCGTTGGTCTAGGGGATTGATTCTCGCTTAGGGTGCGAGAGGTCCCGGGTTCAGGACCCGGACGAGCCC,0.2
18,GGCTCGTCGGTCTAGCGGTGTGATTCTCGCTTAGGGTGCGAGAGGTCCCGGGTTCTAGTCCCGGACGAGCCC,0.25
19,GGCTCGTCGGTCTAGGGGTGTGATTCTCGCTTAGGGTGCGAGAGGTCCCGGGTTCACACCCCGGACGAGCCC,0.2
20,GGCTCGTTGGTCTACGGGTATGATTCTCGCTTAGGGTGCGAGAGGTCCCGGGGTCAAATCCCAGACGAGCCC,0.14
21,GGCTCGTTAGTCTGGGGGTATGATTCTCGCTTAGGGTGCGAGAGGTCCCGGGTTCGACTCCCGGACGAGCCC,0.4
22,GGCTCGTTGGTCTACCGGAATGATTCTCGCTTAGGGTGCGAGAGGTCCCGGGTTCAATTCCCGGACGAGCCC,0.2
23,GGCTCGTTGGTCTGGCGAGTTGATTCTCACTTAGGGTGCGAGAGGTCCCGGGTTCAATACCCGGACGAGCCC,0.4
24,GGCTCGTCGGTCTAGCGGACTGATTCTCGCTTAGGGTGCGAGAGGTCCCGGGTTTAAAGCCCGGACGAGCCC,0.2
25,GGCTCGTTGGTCTAGGGGTATGATTCTCGCTTAGGGTGCGAGAGGCCCCGGGTTCATATCCCGGACGAGCCC,0.57

# Another view of part of the listing above:
row	Variant	tRNA 3' processing efficiency
3	GGCTCGTTTGTCTAGCGGAATGATTCTCGCTTAGGGTGCGAGAGGTCCCGGGTTCCAATCCCGGACGAGCCC	0.17
4	GGCTCGTTGGTCTAGCGGAATGATTCTCGCTTAGGGTGCGAGAGGTCCCGGGTTCTAACCCCGGACGAGCCC	0.14
5	GGCTCGTTGGTCTAGAGGTATGATTCTCGCTTGGGGTGCGAGAGGTCCCGGGTTCAATTCCCGGACGAGCCC	0.2
6	GGCTCGTTGGTCTAGGGGTTTGATTCTCGCTTAGGGTGCGAGAGGTCCCGAGTTCACGTCCCGGACGAGCCC	0.5
7	GGCTCGTTGGTCTAGACGTATGATTCTCGCTTAGGGTGCGAGAGGTCCCGGGTTCAAGGCCCGGACGAGCCC	0.2
8	GGCTCGTTGGTCTAGCGTTATGATTCTCGCTTAGGGTGCGAGAGGTCCCGGGTTCGTATCCCGGACGAGCCC	0.13
9	GGCTCGTTGGTCTAGACGTTTGATTCTCGCTTAGGGTGCGAGAGGTCCCGGGTTCATATCCCGGACGAGCCC	0.4
10	GGCTCGTTGGTCTCGCGGGATGATTCTCGCTTAGGGTGCGAGAGGTCCCGGGTTCCAATCCCGGACGAGCCC	0.4
11	GGCTCGTTGGTCTAGTGGTATGATTCTCGCTTGGGGTGCGAGAGGTCCCGGGTTCAAACCCCGGACGAGCCC	0.2
12	GGCTCGTTGGTCTCGCGGTATGATTCTCGCTTAGGGTGCGAGAGGTCCCGGGTTTGAATCCCGGACGAGCCC	0.1
13	GGCTCGTTGGTCTACGATTGTGATTCTCGCTTAGGGTGCGAGAGGTCCCGGGATCAAATCCCGGACGAGCCC	0.2
14	GGCTCGTTGGTCTAGGGGTATGATTCTCGCTTAGGGTGCGAGAGGTCCCAGGATCTAATCCCGGACGAGCCC	0.4
15	GGCTCGTTGGTCTAGTGGTTTGATTCTCGCTTAGGGTGCGAGAGGTCCCGGGATCCAATCCCGGACGAGCCC	0.4
16	GGCTCGTCGGTCTAGCGGGATGATTCTCGCTTAGGGTGCGAGAGGTCCCGGGTTCACTCCCCGGACGAGCCC	0.33
17	GGCTCGTTGGTCTAGGGGATTGATTCTCGCTTAGGGTGCGAGAGGTCCCGGGTTCAGGACCCGGACGAGCCC	0.2
18	GGCTCGTCGGTCTAGCGGTGTGATTCTCGCTTAGGGTGCGAGAGGTCCCGGGTTCTAGTCCCGGACGAGCCC	0.25

# Additional results

row,Variant,tRNA 3' processing efficiency
1,GGCTCGTTGGTCTAGGGTTATGATTCTCGCTTAGGGTGCGAGAGGTCCCGAGTTCAATTCCCGGACGAGCCC,0.73
2,GGCTCGTGTGTCTAGGAGTATGATTCTCGCTTAGGGTGCGAGAGGTCCCGGGTTCTAAGCCCGGACGAGCCC,0.4
3,GGCTCGTTGGTCTAAGGGAATGATTCTCGCTTAGGGTGCGAGAGGTCCCGGGTTCAACACCCGGACGAGCCC,0.17
4,GGCTCGTTGGTCTAGCGGTATGATTCTCGCTTTGGGTGCGAGAGGTCCCGGGTTTAAGTCCCGGACGAGCCC,0.2
5,GGCTCGTTGGTCTCGTGGTATGATTCTCGCTTAGGGTGCGAGAGGTCCCGGGTTCGTATCCCGGACGAGCCC,0.29
6,GGCTCGTTGGTCTAGGGGAATGATTCTCGCTTAGGGTGCGAGAGGTCCCGCGTTCCAATCCCGGACGAGCCC,0.25
7,GGCTCGTTGGTCCGGGGGTATGATTCTCGCTTAGGGTGCGAGAGGTCCCGGGTTCAAGCCCCGGACGAGCCC,0.38
8,GGCTCGTTGGTCTCGGGGTATGATTCTCGCTTAGGGTGCGAGAGGTCCCGGGTTCATGACCCGGACGAGCCC,0.2
9,GGCTCGTTGGTCTGGGGGTTTGATTCTCGCTTAGGGTGCGAGAGGTCCCGGGTTCACTTCCCGGACGAGCCC,0.56
10,GGCTCGTGGGTCTAGTGGTCTGATTCTCGCTTAGGGTGCGAGAGGTCCCGGGTTCAGATCCCGGACGAGCCC,0.25
11,GGCTCGTTAGTCTTGCGGTATGATTCTCGCTTAGGGTGCGAGAGGTCCCGGGTTCTATTCCCGGACGAGCCC,0.25
12,GGCTCGTTGGTCTAGTGGTATGATTCTCGCTTAGGGTGCGAGAGGTCCCGGGTTCGGGTCCCGGACGAGCCC,0.33
13,GGCTCGTGGGTCTACGGGTCTGATTCTCGCTTAGGGTGCGAGAGGTCCCGGGTTCTAATCCCGGACGAGCCC,0.13
14,GGCTCGTTGGTCTAGTGGAATGATTCTCGCTTAGGGTGCGAGAGGTCCCGGGATCAACTCCCGGACGAGCCC,0.25
15,GGCTCGTGGGTCTAGGGATATGATTCTCGCTTAGGGTGCGAGAGGTCCCGGGTTCAAGACCCGGACGAGCCC,0.44
16,GGCTCGTCGGTCTAGTGGTATGATTCTCGCTTAGGGTGCGAGAGGTCCCGGGTTCAGTTCCCGGACGAGCCC,0.4
17,GGCTCGTTGGTCTAGTCGTATGATTCTCGCTTAGGGTGCGAGAGGTCCCGGGTTCCCATCCCGGACGAGCCC,0.25
18,GGCTCGTTGGTCTAGTGGTTTGATTCTCGCTTAGGGTGCGAGAGGTCCCGGGCTCAAAGCCCGGACGAGCCC,0.25
19,GGCTCGTTAGTCTGGTGGTATGATTCTCGCTTAGGGTGCGAGAGGTCCCGGGTTCATATCCCGGACGAGCCC,0.27
20,GGCTCGTTGGTCTGGGGGAATGATTCTCGCTTAGGGTGCGAGAGGTCCCGGGTTCAAGACCCGGACGAGCCC,0.25
21,GGCTCGTTGGTCTACTCGTATGATTCTCGCTTAGGGTGCGAGAGGTCCCGGGTTCTAATCCCGGACGAGCCC,0.23
22,GGCTCGTTGGTCTAGTGGAATGATTCTCGCTTAGGGTGCGAGAGGTCCCGGGGTCGAATCCCGGACGAGCCC,0.17
23,GGCTCGTGGGTCTAGGGGTATGATTCTCGCTTAGGGTGCGAGAGGTCCCGGGTTCAAGACCCGGACGAGCCC,0.25
24,GGCTCGTTAGTCTAAGTGTATGATTCTCGCTTAGGGTGCGAGAGGTCCCGGGATCAAATCCCGGACGAGCCC,0.25
25,GGCTCGTTGGTCTAGTCGTATGATTCTCGCTTAGGGTGCGAGAGGTCCCGGGTTCGGACCCCGGACGAGCCC,0.1

row,Variant,tRNA 3' processing efficiency
1,GGCTCGTTGGTCTAGGGGTATGATTCTCGCTTGGGGTGCGAGAGGTCCCGGGTTCGATTCCCGGACGAGCCC,0.7
2,GGCTCGTTGGTCTAGTGGTATGATTCTCGCTTAGGGTGCGAGAGGTCCCGGGTTCTCAACCCGGACGAGCCC,0.55
3,GGCTCGTTGGTCTTGAGGTATGATTCTCGCTTAGGGTGCGAGAGGTCCCGGGTTCTCATCCCGGACGAGCCC,0.46
4,GGCTCGTCGGTCTAGTGGAATGATTCTCGCTTAGGGTGCGAGAGGTCCCGGGTTTATATCCCGGACGAGCCC,0.4
5,GGCTCGTGGGTCTCGGGGTATGATTCTCGCTTAGGGTGCGAGAGGTCCCGGGTTCACATCCCGGACGAGCCC,0.25
6,GGCTCGTTGGTCTTGTGGTTTGATTCTCGCTTAGGGTGCGAGAGGTCCCGGGTTCCGATCCCGGACGAGCCC,0.25
7,GGCTCGTTGGTCTAGGGGTTTGATTCTCGCTTAGGGTGCGAGAGGTCCCGGGATCAATCCCCGGACGAGCCC,0.29
8,GGCTCGTTGGTCTAGAGGAATGATTCTCGCTTAGGGTGCGAGAGGTCCCGGGTTCAACACCCGGACGAGCCC,0.25
9,GGCTCGTTGGTCTAGGGGCATGATTCTCGCTTAGGGTGCGAGAGGTCCCGGGTTCCAGTCCCGGACGAGCCC,0.25
10,GGCTCGTGGGTCTGGGTTTATGATTCTCGCTTAGGGTGCGAGAGGTCCCGGGTTCAGATCCCGGACGAGCCC,0.4
11,GGCTCGTTGGTCTACGTGTATGATTCTCGCTTAGGGTGCGAGAGGTCCCGGGTTCCCATCCCGGACGAGCCC,0.5
12,GAGTCGGTGGTCTAGGGGTATGATTCTCGCTTAGGGTGCGAGAGGTCCCGGGTTCCAATCCCGGACGAGCCC,0.6
13,GGCTCGTCAGTCTAGGGGTATGATTCTCGCTTAGGGTGCGAGAGGTCCCGGGTTCAAGTCCCGGACGAGCCC,0.2
14,GGCTCGTGGGTCTAGTGGTATGATTCTCGCTTAGGGTGCGAGAGGTCCCGGGATCAAGACCCGGACGAGCCC,0.17
15,GGCTCGTTGGTCTAGGGGAATGATTCTCGCTTAGGGTGCGAGAGGTCCCGAGTTCGAAACCCGGACGAGCCC,0.5
16,GGCTCGTTGGTCTAAGGGTATGATTCTCGCTTAGGGTGCGAGAGGTCCCGGGTACGGATCCCGGACGAGCCC,0.4
17,GGCTCGTTGGTCTAGGGGGATGATTCTCGCTTAGGGTGCGAGAGGTCCCGGGATCAAGCCCCGGACGAGCCC,0.2
18,GGCTCGTTGGTCTAGGGGTCTGATTCTCGCTTAGGGTGCGAGAGGTCCCGGGATCGAACCCCGGACGAGCCC,0.1
19,GGCTCGTTGGTCTAGGCCTGTGATTCTCGCTTAGGGTGCGAGAGGTCCCGGGTTTAAATCCCGGACGAGCCC,0.4
20,GGCTCGTTGGTCTCGGCGGATGATTCTCGCTTAGGGTGCGAGAGGTCCCGGGTTCTAAGCCCGGACGAGCCC,0.29
21,GGCTCGTTTGTCTTGCGGCATGATTCTCGCTTAGGGTGCGAGAGGTCCCGGGCTCAAATCCCGGACGAGCCC,0.25
22,GGCTCGTGGGTCTAGGGATATGATTCTCGCTTAGGGTGCGAGAGGTCCCGGGGTCGAATCCCGGACGAGCCC,0.7
23,GGCTCGTTGGTCTCGCGGTATGATTCTCGCTTAGGGTGCGAGAGGTCCCGGGTTCGCATCCCGGACGAGCCC,0.57
24,GGCTCGTCGGTCTACGGATATGATTCTCGCTTAGGGTGCGAGAGGTCCCGGGTTTAAAGCCCGGACGAGCCC,0.44
25,GGCTCGTTGGTCTATCGGTATGATTCTCGCTTAGGGTGCGAGAGGTCCCAGGTTCAAAGCCCGGACGAGCCC,0.62
